In patent US6900026B2, “Methods for identifying compounds as antioxidants” (priority 1996, dated 2005):

Assays:
Sod2(+/+) animals = assay: Lipid in liver by Oil red-O staining, treated Sod2(+/+) animals; format: in vivo, mouse; parameters: key to Lipid Mode (score) / Lipid Mean (score): 0=no observable lipid in sections; 1=mild diffuse speckled distribution of lipid; 2=more intense speckled pattern; 3=coalescence of small lipid droplets into large intercellular droplets; 4=massive intercellular lipid droplet accumulation; conditions: MnTBAP treated Sod2(+/+); for Lipid % Control: control = untreated (−/−) 6-10 days; for Lipid Mean (score) / Lipid Mode (score): score 0-4
Sod2CJE(−/−) animals = assay: Behavioral analysis and neuropathology of treated Sod2CJE(−/−) animals; format: in vivo
Description: Treated Sod2CJE(−/−) animals were observed daily from 10 days through to greater than five weeks for behavioral abnormalities compared to litter mate controls. Daily video recordings of up to 10 minutes were made to longitudinally track the development of behavioral changes. A total of 187 video recordings were made of 63 animals from 10 to 23 days of age.
For pathology, the brains were removed from the sacrificed animals and fixed in 10% buffered formalin for up to 7 days. They were then processed, embedded, and sectioned. In some cases representative sections were made every 20 sections or so at 7 microns thickness throughout the brain and stained with hematoxylin and eosin for examination by light microscopy. In other cases, the entire brain was sectioned at 8 microns throughout. […]
During the course of an experiment, each mouse is evaluated daily for weight, lethargy, lack of appetite, its vital signs and for any indication of neurological disorders (observed for circling behavior, dystonia, trembling or the like. Video records can be made for later evaluation, for example for side-by-side comparisons or for observing changes over time. Cardiac histopathology and central nervous system tissue analysis are carried out after death of the animal or after sacrifice of the animal.

SMILES | Lipid % Control (Sod2(+/+) animals; 12 days old, n=3) | Lipid Mean (score) (Sod2(+/+) animals; 12 days old, n=3) | Lipid Mode (score) (Sod2(+/+) animals; 12 days old, n=3) | Lipid % Control (Sod2(+/+) animals; 14 days old, n=4) | Lipid Mean (score) (Sod2(+/+) animals; 14 days old, n=4) | Lipid Mode (score) (Sod2(+/+) animals; 14 days old, n=4) | Lipid % Control (Sod2(+/+) animals; 17 days old, n=4) | Lipid Mean (score) (Sod2(+/+) animals; 17 days old, n=4) | Lipid Mode (score) (Sod2(+/+) animals; 17 days old, n=4) | age at which gait disturbance began (Sod2CJE(−/−) animals; MnTBAP treated Sod2CJE(−/−) animals) | animals developing auditory induced seizures (Sod2CJE(−/−) animals; Euk-8 treated Sod2CJE(−/−) animals which survive to 21 days)
O=C(O)c1ccc(-c2c3nc(c(-c4ccc(C(=O)O)cc4)c4ccc([nH]4)c(-c4ccc(C(=O)O)cc4)c4nc(c(-c5ccc(C(=O)O)cc5)c5ccc2[nH]5)C=C4)C=C3)cc1.[Mn] [MnTBAP, Manganese 5,10,15,20-tetrakis(4-benzoic acid) porphyrin] | 0% | 0 | 0 | 6% | 0.25 | 0.5 | 38% | 1.5 | 2 | about 12 days of age | 
[Cl-].[Mn+3].[O-]c1ccccc1C=NCCN=Cc1ccccc1[O-] [Euk-8] |  |  |  |  |  |  |  |  |  |  | 5 of 9
